These are yes or no findings as the source states them, for the method shown. Binding seen in cells or lysates may run through a third protein.
Key:
[1] = target: NMDAR reconstituted from GluN1Rluc and GluN2B (human) (UniProt Q05586+Q13224); assay: FRET or BRET; BRET^1 saturation in HEK-293T cells: constant GluN1-RLuc and GluN2B cDNA, increasing cDNA of the YFP-fused calcium sensor; 5 uM coelenterazine H; 48 h after transfection
[2] = target: GluN1Rluc expressed without GluN2 (human) (UniProt Q05586); assay: FRET or BRET; BRET^1 saturation in HEK-293T cells: constant GluN1Rluc cDNA (0.3 ug) without GluN2, increasing cDNA of the YFP-fused calcium sensor

Protein sequences, listed by entry. Tags and fused reporters are not part of them.
UniProt Q9NZU7: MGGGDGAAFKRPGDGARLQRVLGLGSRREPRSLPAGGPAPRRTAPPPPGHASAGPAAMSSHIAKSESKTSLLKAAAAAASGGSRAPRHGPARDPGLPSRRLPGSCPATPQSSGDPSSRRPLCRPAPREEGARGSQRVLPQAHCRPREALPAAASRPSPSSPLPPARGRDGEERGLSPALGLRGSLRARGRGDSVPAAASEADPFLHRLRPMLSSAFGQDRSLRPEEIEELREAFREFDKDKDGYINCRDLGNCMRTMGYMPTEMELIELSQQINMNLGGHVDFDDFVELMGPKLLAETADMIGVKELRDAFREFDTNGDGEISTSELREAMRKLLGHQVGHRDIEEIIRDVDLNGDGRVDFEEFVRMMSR

binding [1]: no binding | binding [2]: no binding
Substance: caldendrinYFP fusion protein (from UniProt Q9NZU7 1-370)
